Test [1] deals with LHX6 (Myc-HA-HA-LHX6) (mouse) (UniProt Q9R1R0). Briefly: co-IP; Cos7 cells co-transfected with both proteins, lysed 72 h later; lysate incubated overnight at 4 °C with magnetic beads carrying HA or FLAG antibody (IgG isotype controls); lysis and wash buffer 20 mM Hepes pH 7.4, 100 mM KCl, 2 mM MgCl2, 1% Triton X-100; Western blot for MTG8. In general terms: Immunoblotting shows a protein as a band on a membrane.

Protein sequences, listed by entry. Tags and fused reporters are not part of them.
UniProt Q9R1R0: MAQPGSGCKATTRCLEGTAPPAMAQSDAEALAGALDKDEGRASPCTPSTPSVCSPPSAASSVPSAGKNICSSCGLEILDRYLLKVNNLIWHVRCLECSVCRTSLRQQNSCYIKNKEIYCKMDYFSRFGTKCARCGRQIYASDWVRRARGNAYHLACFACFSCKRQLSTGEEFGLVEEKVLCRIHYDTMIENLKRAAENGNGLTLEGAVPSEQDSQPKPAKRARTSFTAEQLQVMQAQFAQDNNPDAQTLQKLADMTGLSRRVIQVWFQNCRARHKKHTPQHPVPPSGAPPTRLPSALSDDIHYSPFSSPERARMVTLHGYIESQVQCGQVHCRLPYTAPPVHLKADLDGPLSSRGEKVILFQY

Another test deals with T1, LDB1 (UniProt P70662).
T1 sequence: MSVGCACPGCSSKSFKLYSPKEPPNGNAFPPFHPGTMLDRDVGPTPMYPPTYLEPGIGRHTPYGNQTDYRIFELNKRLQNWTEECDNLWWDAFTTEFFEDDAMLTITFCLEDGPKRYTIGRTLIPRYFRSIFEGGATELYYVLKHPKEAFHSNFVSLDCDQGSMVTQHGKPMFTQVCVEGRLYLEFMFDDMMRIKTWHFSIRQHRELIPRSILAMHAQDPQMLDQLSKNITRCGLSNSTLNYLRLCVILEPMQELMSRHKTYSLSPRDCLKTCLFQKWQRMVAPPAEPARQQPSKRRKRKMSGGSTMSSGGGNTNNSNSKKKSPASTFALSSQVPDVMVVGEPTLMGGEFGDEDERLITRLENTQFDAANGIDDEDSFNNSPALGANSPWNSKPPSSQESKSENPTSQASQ
The description is as above.

No constants are given. Whether binding was seen depends on the method and setting. In cells and extracts the contact can be indirect. Some entries that bind do so weakly or less than the wild type.

B1: MTG8 (protein, UniProt Q61909 1-577)
chain: MPDRTEKHSTMPDSPVDVKTQSRLTPPAMPPPPTTQGAPRTSSFTPTTLTNGTSHSPTALNGAPSPPNGFSNGPSSSSSSSLANQQLPPACGARQLSKLKRFLTTLQQFGNDISPEIGERVRTLVLGLVNSTLTIEEFHSKLQEATNFPLRPFVIPFLKANLPLLQRELLHCARLAKQNPAQYLAQHEQLLLDASTTSPVDSSELLLDVNENGKRRTPDRTKENGFDREPLHSEHPSKRPCTISPGQRYSPNNGLSYQPNGLPHPTPPPPQHYRLDDMAIAHHYRDSYRHPSHRDLRDRNRPMGLHGTRQEEMIDHRLTDREWAEEWKHLDHLLNCIMDMVEKTRRSLTVLRRCQEADREELNYWIRRYSDAEDLKKGGSSSSSHSRQQSPVNPDPVALDAHREFLHRPASGYVPEEIWKKAEEAVNEVKRQAMTELQKAVSEAERKAHDMITTERAKMERTVAEAKRQAAEDALAVINQQEDSSESCWNCGRKASETCSGCNTARYCGSFCQHKDWEKHHHICGQTLQAPQQGDTPAVSSSVTPSSGAGSPMDTPPAATPRSTTPGTPSTIETTPR
On to B1, for which the binding result is listed as “binds” in test [1] and “no binding” with LDB1.

The values above are taken from PMC9445035.
